{"source": "the supplement of paper PMC8728848", "binders": {"B1": {"name": "Clec39 (Caenorhabditis elegans) (protein)", "chain": "MTSFYDNSSSSSKPVPLKTSRAQKIQILIFDNWKLILYGAISTLILVLAIMFSTLFFALPAANCDENSEPTKYYTTNAEITTTITTTNQKTTSTASSHLTTISSSATQIYSESSSSSTSQSTFTQSPPEISTTTIAPSDFSCQHGFTLVNNKCWKLVTSNQARPDADKICNGYGGATLFSIKSEQDNRAMIHFVKGQDIDFLWSGLLCSAGEPISCIWDIENGSTANYSNFADGFPNIVYGNCVYFITSGDEAGQWGNEQCGQVMNFVCELPATFQGKDGCKNNYEKSCYLRFDLNLTVPQAQNFCLEKCANLVSIHSANEVRFIMTIYDFIGEILIGALAPAQDFIYWLDGTPANYNNLKFFYNSTCVHMTVAPGMQNVGKWFTRFCTETGKFLCKRSIKNSCT"}}, "experiment_in_all_cases": "glycan array binding signal (z-score within array); higher = stronger binding", "conditions_in_all_cases": "glycan notation: IUPAC condensed, linker removed", "key": {"Glc(b1-6)Glc": {"target": "Glc(b1-6)Glc", "summary_of_the_method": "(§1)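 Glycan array binding is given as a within-array Z-score, which can be read as non-binding when negative. The arrays, 3228 of them, came from the Consortium for Functional Glycomics database and were retained only where the protein sequence was available. Z-scores were averaged across arrays of the same protein sequence at different concentrations or buffers and across linkers.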"}, "GlcA(b1-3)Gal": {"target": "GlcA(b1-3)Gal", "summary_of_the_method": "as §1"}, "GlcA(b1-3)GlcNAc": {"target": "GlcA(b1-3)GlcNAc", "summary_of_the_method": "as §1"}, "GlcA(b1-6)Gal": {"target": "GlcA(b1-6)Gal", "summary_of_the_method": "as §1"}, "[1]": {"target": "GlcA3S(b1-3)Gal(b1-4)GlcNAc(b1-2)Man", "summary_of_the_method": "as §1"}, "[2]": {"target": "GlcA3S(b1-3)Gal(b1-4)GlcNAc(b1-3)Gal(b1-4)Glc", "summary_of_the_method": "as §1"}, "[3]": {"target": "GlcNAc(a1-3)Gal(b1-4)GlcNAc", "summary_of_the_method": "as §1"}, "[4]": {"target": "GlcNAc(a1-4)Gal(b1-3)GlcNAc", "summary_of_the_method": "as §1"}, "[5]": {"target": "GlcNAc(a1-4)Gal(b1-4)GalNAc", "summary_of_the_method": "as §1"}, "[6]": {"target": "GlcNAc(a1-4)Gal(b1-4)GlcNAc", "summary_of_the_method": "as §1"}, "[7]": {"target": "GlcNAc(a1-4)Gal(b1-4)GlcNAc(b1-3)Gal(b1-4)Glc", "summary_of_the_method": "as §1"}, "[8]": {"target": "GlcNAc(a1-4)Gal(b1-4)GlcNAc(b1-3)Gal(b1-4)GlcNAc", "summary_of_the_method": "as §1"}, "[9]": {"target": "GlcNAc(a1-4)Gal(b1-4)GlcNAc(b1-3)Gal(b1-4)GlcNAc(b1-3)Gal(b1-4)GlcNAc", "summary_of_the_method": "as §1"}, "[10]": {"target": "GlcNAc(a1-4)Gal(b1-4)GlcNAc(b1-3)Gal(b1-4)[Fuc(a1-3)]GlcNAc(b1-3)Gal(b1-4)[Fuc(a1-3)]GlcNAc", "summary_of_the_method": "as §1"}, "[11]": {"target": "GlcNAc(a1-6)Gal(b1-4)GlcNAc", "summary_of_the_method": "as §1"}, "[12]": {"target": "GlcNAc(b1-2)Gal(b1-3)GalNAc", "summary_of_the_method": "as §1"}, "[13]": {"target": "GlcNAc(b1-2)Man(a1-3)[GlcNAc(b1-2)Man(a1-6)]Man(b1-4)GlcNAc(b1-4)GlcNAc", "summary_of_the_method": "as §1"}, "[14]": {"target": "GlcNAc(b1-2)Man(a1-3)[GlcNAc(b1-2)Man(a1-6)]Man(b1-4)GlcNAc(b1-4)[Fuc(a1-6)]GlcNAc", "summary_of_the_method": "as §1"}, "[15]": {"target": "GlcNAc(b1-2)Man(a1-3)[GlcNAc(b1-4)][GlcNAc(b1-2)Man(a1-6)]Man(b1-4)GlcNAc(b1-4)GlcNAc", "summary_of_the_method": "as §1"}, "[16]": {"target": "GlcNAc(b1-2)Man(a1-3)[GlcNAc(b1-4)][GlcNAc(b1-2)Man(a1-6)]Man(b1-4)GlcNAc(b1-4)[Fuc(a1-6)]GlcNAc", "summary_of_the_method": "as §1"}, "[17]": {"target": "GlcNAc(b1-2)[GlcNAc(b1-4)]Man(a1-3)[GlcNAc(b1-2)Man(a1-6)]Man(b1-4)GlcNAc(b1-4)GlcNAc", "summary_of_the_method": "as §1"}, "[18]": {"target": "GlcNAc(b1-2)[GlcNAc(b1-4)]Man(a1-3)[GlcNAc(b1-4)][GlcNAc(b1-2)Man(a1-6)]Man(b1-4)GlcNAc(b1-4)GlcNAc", "summary_of_the_method": "as §1"}}, "note": "The list shows a part of the results."}
{"binder": "B1", "values": [{"measurement": "glycan array binding signal (z-score)", "setting": "Glc(b1-6)Glc", "result": 0.595}, {"measurement": "glycan array binding signal (z-score)", "setting": "GlcA(b1-3)Gal", "result": 0.927}, {"measurement": "glycan array binding signal (z-score)", "setting": "GlcA(b1-3)GlcNAc", "result": -0.085}, {"measurement": "glycan array binding signal (z-score)", "setting": "GlcA(b1-6)Gal", "result": 0.019}, {"measurement": "glycan array binding signal (z-score)", "setting": "[1]", "result": -0.239}, {"measurement": "glycan array binding signal (z-score)", "setting": "[2]", "result": -0.756}, {"measurement": "glycan array binding signal (z-score)", "setting": "[3]", "result": 0.354}, {"measurement": "glycan array binding signal (z-score)", "setting": "[4]", "result": 0.627}, {"measurement": "glycan array binding signal (z-score)", "setting": "[5]", "result": -0.942}, {"measurement": "glycan array binding signal (z-score)", "setting": "[6]", "result": 0.563}, {"measurement": "glycan array binding signal (z-score)", "setting": "[7]", "result": -0.064}, {"measurement": "glycan array binding signal (z-score)", "setting": "[8]", "result": -1.06}, {"measurement": "glycan array binding signal (z-score)", "setting": "[9]", "result": -0.47}, {"measurement": "glycan array binding signal (z-score)", "setting": "[10]", "result": 3.59}, {"measurement": "glycan array binding signal (z-score)", "setting": "[11]", "result": -0.512}, {"measurement": "glycan array binding signal (z-score)", "setting": "[12]", "result": 0.357}, {"measurement": "glycan array binding signal (z-score)", "setting": "[13]", "result": -0.308}, {"measurement": "glycan array binding signal (z-score)", "setting": "[14]", "result": 0.308}, {"measurement": "glycan array binding signal (z-score)", "setting": "[15]", "result": -0.237}, {"measurement": "glycan array binding signal (z-score)", "setting": "[16]", "result": 0.967}, {"measurement": "glycan array binding signal (z-score)", "setting": "[17]", "result": 0.095}, {"measurement": "glycan array binding signal (z-score)", "setting": "[18]", "result": 0.673}]}
